According to PubChem BioAssay AID493014 (National Center for Advancing Translational Sciences (NCATS), 2011):
Screen size: about 340,000 compounds; about 170 (0.05%) were called active. This list was built around the results that the source calls inconclusive (neither active nor inactive); the mix of calls is not that of the screen. Calls follow the shape of the dose curve; as a rule, active = well fitted inhibition curve with a large enough effect in the signal ratio, with a control signal flat (not every such curve was filed as active); inconclusive = small, poorly fitted or top-dose-only effect, or effect the other way, or a change in a side signal; inactive = flat fitted curve, though single readings scatter; the % refers to the signal ratio. A potency beside an inconclusive call is a rough fit, not a confirmed value.

Assay: qHTS Assay to Find Inhibitors of Chronic Active B-Cell Receptor Signaling;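 as to activity change, negative = inhibition: plate controls were basal doxycycline-induced cells for no effect and cells given 10 µM MG132 for full effect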
Conditions: ABC-DLBCL IkBa-CBG/CBR reporter, luminescence ratio (green luciferase fused to IkBa over red control in TMD8 lymphoma cells), 4 h; activity change, negative = inhibition: at 46.1 µM (top of the series)
In short: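 Concentration-response series (up to 46 uM) were applied to TMD8 dual-reporter cells for 4 h at 37C with doxycycline. Green/red ratio, after filter-overlap correction, defined %Activity; red signal alone was normalised to basal cells and zero luminescence.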
Potency is read from the fitted curve at half-maximal effect.

Question: Which activity change, negative = inhibition does the source give for `CCN1CCN(c2ccc([N+](=O)[O-])cc2C(=O)OC)CC1` here?
Answer: inconclusive: 15.7%

Question: With `Cc1ccccc1N1C(=O)CC(=O)NC1=O` as the compound, how does the activity change, negative = inhibition read?
Answer: inconclusive: -2.16%

Question: With `CN(C)CC1Oc2ccccc2OC1(O)c1ccccc1` (stereo not drawn) as the compound, how does the activity change, negative = inhibition read?
Answer: inconclusive: 20.3%

Question: For `COc1cc(N)ccc1Cc1ccc(N)cc1OC`, which Potency is on record?
Answer: inconclusive: 25.1 µM [falling, partial curve, poor fit]

Question: With `CN1CCC(n2nccc2N)CC1` as the compound, how does the activity change, negative = inhibition read?
Answer: inconclusive: -2.27%

Question: Which activity change, negative = inhibition does the source give for `CC(C)COP(=O)(c1ccc(N(C)C)cc1)C(O)c1ccccn1` (stereo not drawn) here?
Answer: inconclusive: 2.17%

Question: With `O=C1/C(=C\c2cccnc2)N2CCC1CC2` as the compound, how does the “activity change, negative = inhibition” value read?
Answer: inactive: 3.93%

Question: With `Nc1ccc(Cl)cc1C(=O)c1ccccc1Cl` as the compound, how does the activity change, negative = inhibition read?
Answer: inconclusive: -2.47%

Question: With `OC(c1cc(-c2ccc(C(F)(F)F)cc2)nc(C(F)(F)F)c1)C1CCCCN1` (stereo not drawn) as the compound, how does the Potency read?
Answer: inconclusive: 35.5 µM [rising, partial curve, poor fit]

Question: For `Cn1cc(C(=O)N2CCC3(CC2)OCCO3)c2c3ccccc3n(C)c2c1=O`, which “activity change, negative = inhibition” value is on record?
Answer: inactive: 3.93%

Question: Which activity change, negative = inhibition does the source give for `CCOC(=O)C(O)(c1ccc(N=Cc2ccccc2O)c(C)c1)C(F)(F)F` (stereo not drawn) here?
Answer: inconclusive: 0.303%

Question: For `Cc1ccc(Cn2nnnc2CN2CCC(n3nnc4cc(C(F)(F)F)ccc43)CC2)cc1`, which activity change, negative = inhibition is on record?
Answer: inconclusive: 2.17%

Question: For `COc1ccccc1/C=C/C=C(\C#N)C(=O)NC(C)c1ccccc1` (stereo not drawn), which Potency is on record?
Answer: inconclusive: 17.8 µM [falling, partial curve]

Question: With `CN1CCN(Cc2ccccc2Sc2ccccc2)CC1` as the compound, how does the “activity change, negative = inhibition” value read?
Answer: inactive: -2.54%

Question: With `CN(CC(=O)Nc1ccccc1-c1ccccc1)C1CCCCC1` as the compound, how does the Potency read?
Answer: inconclusive: 7.31 µM [rising, partial curve]

Question: With `O=C(Nc1ccccc1Cl)Oc1ccc(-c2ccccc2)cc1` as the compound, how does the activity change, negative = inhibition read?
Answer: inconclusive: -1.8%

Question: With `O=C1NC(=O)N(CCNc2ncc(C(F)(F)F)cc2Cl)C(=O)C1Cc1ccc(Cl)cc1` (stereo not drawn) as the compound, how does the activity change, negative = inhibition read?
Answer: inconclusive: -3.21%

Question: With `Ic1ccccc1CN[C@@H]1C2CCN(CC2)[C@@H]1C(c1ccccc1)c1ccccc1` as the compound, how does the Potency read?
Answer: inconclusive: 29.1 µM [rising, single point]

Question: Which “activity change, negative = inhibition” value does the source give for `CN(C)C(=O)Oc1cccc(NC(=O)c2ccccc2C(F)(F)F)c1` here?
Answer: inactive: -4.13%

Question: Which Potency does the source give for `CCCCCCCSc1cc(OC)c(CCNC)cc1OC` here?
Answer: inconclusive: 35.5 µM [falling, single point]

Question: For `NCCCN1CCN(c2ccccc2)CC1`, which activity change, negative = inhibition is on record?
Answer: inconclusive: -4.89%

Question: Which activity change, negative = inhibition does the source give for `C=CCn1c(O)c(C(CC)=NCC2CCCO2)c(=O)[nH]c1=O` (stereo not drawn) here?
Answer: inconclusive: 19.5%

Question: For `CCCCCCn1c(O)c(C=NC2CCN(Cc3ccccc3)CC2)c(=O)[nH]c1=O`, which Potency is on record?
Answer: inconclusive: 25.9 µM [rising, partial curve, poor fit]
